Several values for one entry are separate records, joined by “and”; a condition that tells them apart may be missing. Identical values can stand only once. The inconclusive results got no clear call from the source; some entries with a clear call stand among them for comparison. For some of these results: Potencies of inconclusive entries are doubtful fits and often do not repeat. Activity calls are given as the source filed them. Rule for the calls: active = hit-call score of the fitted dose curve at least 0.9, where 1 is the maximum; inconclusive = response in the unintended direction; inactive = score below 0.9.
Tests used:
[1] = VALA_TUBHUV_Antagonist_TubuleLength: VALA Sciences human Umbilical Vein Endothelial Tubule Formation (TUBHUV) Antagonism Assay (AID 2284325)
Procedure, shortened: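 HUVEC–HDF co-culture (1:3) pre-grown 3 days with 10 ng/ml VEGF, then 3 days with compound plus VEGF. Fixed, nuclear and CD31 stained; total tubule length by imaging versus 0.1% DMSO; suramin 100 uM positive control.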

Chains of the proteins cited; added tags and fusions are not shown. Lines headed by an entry give the natural chain unless they say otherwise; changes in a name come on top.
UniProt P24666: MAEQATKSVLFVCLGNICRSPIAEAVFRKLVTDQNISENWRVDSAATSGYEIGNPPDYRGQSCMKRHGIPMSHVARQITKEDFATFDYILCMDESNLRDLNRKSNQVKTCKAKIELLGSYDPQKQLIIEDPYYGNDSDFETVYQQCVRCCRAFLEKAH
UniProt P11510: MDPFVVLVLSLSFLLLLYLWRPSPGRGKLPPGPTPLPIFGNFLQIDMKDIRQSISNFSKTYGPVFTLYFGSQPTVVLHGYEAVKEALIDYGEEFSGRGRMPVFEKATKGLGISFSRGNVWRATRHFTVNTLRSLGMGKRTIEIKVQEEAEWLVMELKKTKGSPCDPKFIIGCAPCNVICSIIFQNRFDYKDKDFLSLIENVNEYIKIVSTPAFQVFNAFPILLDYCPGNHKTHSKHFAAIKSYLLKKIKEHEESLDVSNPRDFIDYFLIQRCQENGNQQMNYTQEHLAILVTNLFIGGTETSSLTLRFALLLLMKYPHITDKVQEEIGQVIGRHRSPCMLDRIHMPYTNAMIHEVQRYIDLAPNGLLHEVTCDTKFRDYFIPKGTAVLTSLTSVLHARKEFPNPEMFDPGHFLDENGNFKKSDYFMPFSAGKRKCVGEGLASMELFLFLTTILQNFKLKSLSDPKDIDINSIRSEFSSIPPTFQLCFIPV
UniProt P10828: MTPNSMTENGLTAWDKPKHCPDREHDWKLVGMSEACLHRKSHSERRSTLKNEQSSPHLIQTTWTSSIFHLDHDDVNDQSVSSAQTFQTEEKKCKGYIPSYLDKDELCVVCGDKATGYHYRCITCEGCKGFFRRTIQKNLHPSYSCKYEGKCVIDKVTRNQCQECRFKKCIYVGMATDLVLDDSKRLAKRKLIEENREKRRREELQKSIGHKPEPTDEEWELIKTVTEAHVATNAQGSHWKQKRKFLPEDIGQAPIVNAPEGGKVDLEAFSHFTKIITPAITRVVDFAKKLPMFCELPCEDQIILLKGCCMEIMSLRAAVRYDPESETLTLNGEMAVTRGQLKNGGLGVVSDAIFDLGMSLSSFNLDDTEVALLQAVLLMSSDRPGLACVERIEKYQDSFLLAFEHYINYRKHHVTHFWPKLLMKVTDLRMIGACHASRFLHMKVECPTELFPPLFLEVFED
UniProt P10275: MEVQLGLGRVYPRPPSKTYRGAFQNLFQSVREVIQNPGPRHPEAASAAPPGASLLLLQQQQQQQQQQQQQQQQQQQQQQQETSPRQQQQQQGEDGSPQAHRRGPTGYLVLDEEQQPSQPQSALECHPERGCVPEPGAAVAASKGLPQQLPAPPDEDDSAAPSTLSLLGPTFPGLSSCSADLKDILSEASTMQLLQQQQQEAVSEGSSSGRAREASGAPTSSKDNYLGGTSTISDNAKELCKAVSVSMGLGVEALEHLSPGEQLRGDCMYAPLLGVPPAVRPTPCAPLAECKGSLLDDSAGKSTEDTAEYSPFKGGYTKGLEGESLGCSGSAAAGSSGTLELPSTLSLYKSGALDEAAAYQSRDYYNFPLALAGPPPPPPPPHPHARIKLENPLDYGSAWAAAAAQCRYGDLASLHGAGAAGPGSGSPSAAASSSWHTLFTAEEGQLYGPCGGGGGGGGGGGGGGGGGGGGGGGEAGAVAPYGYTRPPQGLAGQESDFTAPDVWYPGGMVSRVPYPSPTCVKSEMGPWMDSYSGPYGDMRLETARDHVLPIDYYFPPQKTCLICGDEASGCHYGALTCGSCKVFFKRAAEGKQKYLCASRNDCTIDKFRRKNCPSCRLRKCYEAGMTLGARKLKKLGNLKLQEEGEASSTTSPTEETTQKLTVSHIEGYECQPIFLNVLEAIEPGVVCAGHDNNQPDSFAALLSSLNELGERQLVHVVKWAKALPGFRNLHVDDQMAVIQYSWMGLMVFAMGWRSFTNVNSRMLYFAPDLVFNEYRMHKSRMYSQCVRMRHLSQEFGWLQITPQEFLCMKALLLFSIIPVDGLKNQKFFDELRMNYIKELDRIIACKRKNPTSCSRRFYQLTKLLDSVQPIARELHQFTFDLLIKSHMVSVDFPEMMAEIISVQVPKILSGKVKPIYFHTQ
UniProt Q02763: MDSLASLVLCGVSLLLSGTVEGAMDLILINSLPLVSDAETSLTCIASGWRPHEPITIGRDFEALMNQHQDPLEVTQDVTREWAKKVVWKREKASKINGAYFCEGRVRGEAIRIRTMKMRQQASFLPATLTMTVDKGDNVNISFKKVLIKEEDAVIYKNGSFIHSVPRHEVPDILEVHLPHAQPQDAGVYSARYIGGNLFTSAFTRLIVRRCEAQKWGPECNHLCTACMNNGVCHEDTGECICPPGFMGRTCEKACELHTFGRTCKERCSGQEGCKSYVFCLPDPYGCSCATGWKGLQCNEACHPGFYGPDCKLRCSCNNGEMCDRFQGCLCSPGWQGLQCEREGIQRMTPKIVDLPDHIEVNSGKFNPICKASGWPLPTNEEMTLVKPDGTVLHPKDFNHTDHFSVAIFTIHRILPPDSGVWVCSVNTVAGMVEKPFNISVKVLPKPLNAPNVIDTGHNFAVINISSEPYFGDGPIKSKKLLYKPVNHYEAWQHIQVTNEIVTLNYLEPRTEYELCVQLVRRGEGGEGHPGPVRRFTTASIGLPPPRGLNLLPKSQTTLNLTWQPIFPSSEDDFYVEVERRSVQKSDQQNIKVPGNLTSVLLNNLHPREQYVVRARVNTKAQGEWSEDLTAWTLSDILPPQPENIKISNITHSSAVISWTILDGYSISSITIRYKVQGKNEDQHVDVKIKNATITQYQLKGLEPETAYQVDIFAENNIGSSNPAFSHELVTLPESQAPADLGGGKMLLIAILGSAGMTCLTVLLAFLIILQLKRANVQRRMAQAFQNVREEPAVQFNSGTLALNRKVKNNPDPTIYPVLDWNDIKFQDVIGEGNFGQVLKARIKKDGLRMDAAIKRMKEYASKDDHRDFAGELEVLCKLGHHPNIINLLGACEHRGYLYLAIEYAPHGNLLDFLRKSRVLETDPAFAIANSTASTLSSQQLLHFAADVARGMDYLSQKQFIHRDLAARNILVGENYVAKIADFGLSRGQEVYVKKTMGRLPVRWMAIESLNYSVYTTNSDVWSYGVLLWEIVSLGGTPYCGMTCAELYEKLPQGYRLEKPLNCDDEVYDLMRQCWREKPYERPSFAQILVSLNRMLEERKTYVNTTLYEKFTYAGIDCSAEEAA
UniProt P23467: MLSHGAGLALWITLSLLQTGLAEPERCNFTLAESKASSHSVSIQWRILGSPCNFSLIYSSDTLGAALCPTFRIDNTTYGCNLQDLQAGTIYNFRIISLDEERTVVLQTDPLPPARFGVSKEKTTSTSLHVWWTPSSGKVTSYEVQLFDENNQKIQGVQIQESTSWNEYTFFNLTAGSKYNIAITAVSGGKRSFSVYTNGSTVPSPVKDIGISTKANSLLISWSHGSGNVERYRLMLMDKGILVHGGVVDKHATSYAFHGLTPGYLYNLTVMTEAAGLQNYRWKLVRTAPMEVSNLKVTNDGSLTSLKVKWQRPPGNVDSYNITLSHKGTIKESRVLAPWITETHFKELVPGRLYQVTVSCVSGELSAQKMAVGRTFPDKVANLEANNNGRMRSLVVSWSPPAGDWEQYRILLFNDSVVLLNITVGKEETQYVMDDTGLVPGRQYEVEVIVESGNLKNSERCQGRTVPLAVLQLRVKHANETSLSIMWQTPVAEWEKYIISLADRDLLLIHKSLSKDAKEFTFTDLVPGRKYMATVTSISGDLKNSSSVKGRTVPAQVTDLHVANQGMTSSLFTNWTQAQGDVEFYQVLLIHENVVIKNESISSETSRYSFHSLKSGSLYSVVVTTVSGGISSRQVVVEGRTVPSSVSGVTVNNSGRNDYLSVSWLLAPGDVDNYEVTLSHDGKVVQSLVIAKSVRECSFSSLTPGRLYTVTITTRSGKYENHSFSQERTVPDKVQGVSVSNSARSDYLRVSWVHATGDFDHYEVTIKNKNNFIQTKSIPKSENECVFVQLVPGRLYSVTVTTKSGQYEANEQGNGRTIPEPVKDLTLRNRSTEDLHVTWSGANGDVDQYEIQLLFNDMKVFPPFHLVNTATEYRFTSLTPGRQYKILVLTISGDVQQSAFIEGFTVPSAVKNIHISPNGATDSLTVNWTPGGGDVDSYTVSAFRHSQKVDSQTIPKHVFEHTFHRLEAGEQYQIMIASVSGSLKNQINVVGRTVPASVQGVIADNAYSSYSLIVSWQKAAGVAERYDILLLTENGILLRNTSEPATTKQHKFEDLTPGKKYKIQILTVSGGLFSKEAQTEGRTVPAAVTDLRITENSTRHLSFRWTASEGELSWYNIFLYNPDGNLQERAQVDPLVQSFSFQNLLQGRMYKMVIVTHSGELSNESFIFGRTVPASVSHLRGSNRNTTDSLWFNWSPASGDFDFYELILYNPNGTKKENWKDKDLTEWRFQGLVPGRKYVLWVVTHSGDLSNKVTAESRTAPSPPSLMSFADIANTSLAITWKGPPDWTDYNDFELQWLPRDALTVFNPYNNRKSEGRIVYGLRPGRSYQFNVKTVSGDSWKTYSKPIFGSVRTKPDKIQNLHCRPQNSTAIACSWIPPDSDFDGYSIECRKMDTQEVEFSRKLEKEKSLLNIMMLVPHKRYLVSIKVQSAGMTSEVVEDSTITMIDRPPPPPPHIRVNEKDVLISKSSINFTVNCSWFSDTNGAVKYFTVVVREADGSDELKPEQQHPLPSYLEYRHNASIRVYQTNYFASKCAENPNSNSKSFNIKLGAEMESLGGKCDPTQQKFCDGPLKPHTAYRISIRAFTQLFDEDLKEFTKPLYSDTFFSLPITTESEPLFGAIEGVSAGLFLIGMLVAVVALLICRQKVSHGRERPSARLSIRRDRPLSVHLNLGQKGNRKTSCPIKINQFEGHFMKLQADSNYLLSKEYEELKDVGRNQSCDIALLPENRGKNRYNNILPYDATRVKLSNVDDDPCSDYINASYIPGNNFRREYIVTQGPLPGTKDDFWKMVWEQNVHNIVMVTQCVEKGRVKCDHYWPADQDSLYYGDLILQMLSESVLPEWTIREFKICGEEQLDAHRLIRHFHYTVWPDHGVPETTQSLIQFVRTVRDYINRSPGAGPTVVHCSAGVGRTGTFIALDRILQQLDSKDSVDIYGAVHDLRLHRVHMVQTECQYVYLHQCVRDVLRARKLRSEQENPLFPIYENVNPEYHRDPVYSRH
UniProt P35916, whole entry, looked up: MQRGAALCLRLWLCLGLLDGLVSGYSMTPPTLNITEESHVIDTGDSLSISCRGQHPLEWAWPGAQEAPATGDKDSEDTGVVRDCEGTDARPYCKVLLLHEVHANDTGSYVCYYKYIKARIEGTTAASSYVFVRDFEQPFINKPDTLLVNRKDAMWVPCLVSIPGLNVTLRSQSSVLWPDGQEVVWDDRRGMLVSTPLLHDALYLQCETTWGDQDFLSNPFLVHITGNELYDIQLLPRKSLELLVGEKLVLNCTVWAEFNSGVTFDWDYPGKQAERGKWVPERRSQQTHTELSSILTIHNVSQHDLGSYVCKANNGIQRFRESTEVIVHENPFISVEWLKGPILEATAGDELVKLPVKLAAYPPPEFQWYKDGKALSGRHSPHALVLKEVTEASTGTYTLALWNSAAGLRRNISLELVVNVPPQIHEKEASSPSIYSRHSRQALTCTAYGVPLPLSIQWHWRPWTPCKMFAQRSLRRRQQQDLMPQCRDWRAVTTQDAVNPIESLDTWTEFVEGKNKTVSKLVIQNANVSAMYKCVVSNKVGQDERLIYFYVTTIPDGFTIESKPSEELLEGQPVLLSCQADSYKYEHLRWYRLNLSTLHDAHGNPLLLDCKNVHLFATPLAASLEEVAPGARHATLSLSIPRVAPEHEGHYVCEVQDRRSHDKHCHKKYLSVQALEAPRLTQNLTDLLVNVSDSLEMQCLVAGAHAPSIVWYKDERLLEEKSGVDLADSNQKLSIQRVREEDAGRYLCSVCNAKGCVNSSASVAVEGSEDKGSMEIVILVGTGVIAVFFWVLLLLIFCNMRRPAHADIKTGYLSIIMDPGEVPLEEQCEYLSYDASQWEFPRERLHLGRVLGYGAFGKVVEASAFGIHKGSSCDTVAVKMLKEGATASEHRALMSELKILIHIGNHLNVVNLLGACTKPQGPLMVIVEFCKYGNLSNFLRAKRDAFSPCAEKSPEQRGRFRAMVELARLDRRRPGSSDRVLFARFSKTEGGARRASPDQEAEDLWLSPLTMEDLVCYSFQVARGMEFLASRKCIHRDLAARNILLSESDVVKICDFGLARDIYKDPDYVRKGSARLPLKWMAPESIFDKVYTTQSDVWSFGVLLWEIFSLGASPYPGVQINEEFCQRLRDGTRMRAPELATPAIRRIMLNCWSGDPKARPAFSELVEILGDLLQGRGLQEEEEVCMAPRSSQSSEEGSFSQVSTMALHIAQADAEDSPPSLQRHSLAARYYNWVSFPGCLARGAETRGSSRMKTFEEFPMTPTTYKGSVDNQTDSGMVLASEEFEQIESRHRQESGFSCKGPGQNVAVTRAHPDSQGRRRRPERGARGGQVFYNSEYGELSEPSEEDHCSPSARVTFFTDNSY

[2] = VALA_MIGHUV1_ScratchOnly_CellCount: Viability Assessment in the VALA Sciences human Umbilical Vein Endothelial Cell Migration (MIGHUV) Assay, Scratch Wound Inhibited Recovery (AID 2284327)
Procedure, shortened: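 HUVEC scratched after 24 h culture, chemical added within 30 min at 6 concentrations in triplicate (0.1% DMSO vehicle). After 24 h recovery, fixed cells were counted by Hoechst nuclear imaging in the wound area.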

[3] = TOX21_PR_LUC_Followup_Agonist_viability: Viability Assessment in the Tox21 HEK293 Progesterone Receptor (PR) Agonism Luciferase Follow-Up Assay (AID 2283941);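 note: loss of signal means cytotoxicity so actives lower viability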
Procedure, shortened: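 HEK293-PR-A-luc cells, pre-cultured 5 days in 10% charcoal-stripped FBS, were seeded at 3,000 cells/well, rested 5 h at 37C, then given compound in DMSO for 16 h at 37C. Cellular ATP was read by CellTiter-Glo luminescence; signal loss indicates cytotoxicity.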

[4] = molecular target: human Acid Phosphatase 1 (ACP1), ACP1 (gene 52) (UniProt P24666); assay: NVS_ENZ_hACP1: NovaScreen (NVS) Enzymatic Assay for human Acid Phosphatase 1 (ACP1) (AID 2283136)
Procedure, shortened: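 Recombinant enzyme expressed in Sf9 cells, tested cell-free; activity read by fluorescence with electrophoretic mobility shift separation of substrate and product, 1.5 h after dosing. Primary screen in duplicate at 25 uM, actives then run in concentration series; loss of signal versus DMSO.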

[5] = molecular target: human Constitutive Androstane Receptor (CAR), NR1I3 (gene 9970) (UniProt Q14994); assay: NVS_NR_hCAR_Agonist: NovaScreen (NVS) Nuclear Receptor Binding Assay for human Constitutive Androstane Receptor Agonism (CAR) (AID 2283328)
Procedure, shortened: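 Cell-free TR-FRET binding readout with extracted human CAR protein, read 1 h after dosing. Gain of signal fitted against DMSO baseline. Single-concentration duplicates at 25 uM, then concentration-response up to 50 uM for actives.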

[6] = molecular target: rat CYP2C12, Cyp2c12 (gene 25011) (UniProt P11510); assay: NVS_ADME_rCYP2C12: NovaScreen (NVS) CYP450-related Enzyme Activity (ADME) Assay for rat CYP2C12 (AID 2283119)
Procedure, shortened: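 Cell-free recombinant rat CYP2C12 activity read by fluorescence 0.5 h after dosing; loss of signal versus acetonitrile control. Primary screen in duplicate at 10 uM; actives then run in concentration-response format.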

[7] = molecular target: human Insulin Receptor (InsR), INSR (gene 3643) (UniProt P06213); assay: NVS_ENZ_hInsR: NovaScreen (NVS) Enzymatic Assay for human Insulin Receptor (InsR) (AID 2283168)
Procedure, shortened: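 Fluorescent substrate phosphorylation by recombinant kinase, product resolved by electrophoretic mobility shift, read 1 h after dosing. Screened in duplicate at 25 uM; hits (e.g., 30% inhibition) run in concentration-response to 50 uM; DMSO as baseline.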

[8] = NVS_GPCR_bNPY_NonSelective: NovaScreen (NVS) G Protein-Coupled Receptor Assay for bovine Neuropeptide Y (NPY) Receptor, Non-selective Binding (AID 2283245)
Procedure, shortened: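 Bovine hippocampal membranes incubated 1 hour with radioligand and test chemical. Bound ligand measured by filter-based scintillation counting. Single-concentration screen at 25 uM in duplicate, then concentration-response up to 50 uM.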

THRB (gene 7068) = THRB (gene 7068) (UniProt P10828); assay: TOX21_TRB_BLA_Antagonist_Followup_ratio: Tox21 Thyroid Hormone Receptor beta Antagonism Beta-lactamase (BLA) Follow-Up Assay, Ratio (AID 2283958)
Procedure, shortened: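 GAL4-DBD/human TRβ-LBD fusion in GeneBLAzer UAS-bla HEK293T cells, 3,000 cells/well in phenol red-free DMEM with 2% charcoal-stripped FBS; compounds at 11 concentrations in triplicate, 18 h at 37C. CCF4-AM substrate 2 h, 460:530 nm ratio relative to DMSO.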

[9] = molecular target: Nucleoli Translocation, AR (gene 367) (UniProt P10275); assay: UPITT_HCI_U2OS_AR_TIF2_Nucleoli_Antagonist: University of Pittsburgh U2OS Androgen Receptor-Transcriptional Intermediary Factor 2 (AR-TIF2) Antagonism High Content Imaging Assay for Nucleoli Translocation (AID 2283997)
Procedure, shortened: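 Measured quantity was AR-RFP fluorescence localized to nucleoli in engineered U2OS cells also bearing TIF2-GFP, acquired on automated high-content imagers. Primary testing used 20 uM compound; actives were confirmed in triplicate wells.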

[10] = molecular target: rat Monoamine Oxidase, MAO-B, Peripheral (MAOBP), Maob (gene 25750) (UniProt P19643); assay: NVS_ENZ_rMAOBP: NovaScreen (NVS) Enzymatic Assay for rat Monoamine Oxidase, MAO-B, Peripheral (MAOBP) (AID 2283242)
[11] = molecular target: human Tyrosine Protein Kinase Receptor Tie-2 (Tie2), TEK (gene 7010) (UniProt Q02763); assay: NVS_ENZ_hTie2: NovaScreen (NVS) Enzymatic Assay for human Tyrosine Protein Kinase Receptor Tie-2 (Tie2) (AID 2283225)
Procedure, shortened: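 Recombinant human Tie2 kinase activity was read cell-free by fluorescence with electrophoretic mobility shift, 1 hour after dosing. The screen used 25 uM in duplicate, then concentration-response up to 50 uM. Signal loss was scored against DMSO.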

[12] = molecular target: human CYP2J2, CYP2J2 (gene 1573) (UniProt P51589); assay: NVS_ADME_hCYP2J2: NovaScreen (NVS) CYP450-related Enzyme Activity (ADME) Assay for human CYP2J2 (AID 2283106)
Procedure, shortened: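 Cell-free assay of recombinant CYP2J2 with a fluorogenic substrate, read 1 h after dosing; loss of signal versus acetonitrile. Primary screen at 10 uM in duplicate, then concentration-response up to 20 uM for chemicals passing threshold (e.g., 30% inhibition).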

[13] = molecular target: Voltage-gated inwardly rectifying potassium channel KCNH2 (Homo sapiens) (UniProt Q12809); assay: NVS_IC_hKhERGCh: NovaScreen (NVS) Ion Channel Assay for human Potassium Channel ERG (KhERGCh) (AID 2283333)
Procedure, shortened: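 Cell-free radioligand competition binding on hERG protein extracted from CHO cells, read by filter-based scintillation counting 0.75 h after dosing. Primary screen at 25 uM in duplicate, actives followed in concentration series. Signal loss fitted versus DMSO.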

[14] = ATG_XTT_Cytotoxicity_XSP1: Cytotoxicity Assessment in the Attagene TRANS-FACTORIAL Multi-Species (XSP1) HepG2 Assay (AID 2283810)
Procedure, shortened: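 XTT viability readout taken at 24 hours post-dosing in HepG2 liver cells co-treated with 3 nM 6-alpha-fluorotestosterone. Signal loss relative to DMSO controls reflects cytotoxicity.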

[15] = molecular target: human Phosphodiesterase 4A1 (PDE4A1), PDE4A (gene 5141) (UniProt P27815); assay: NVS_ENZ_hPDE4A1: NovaScreen (NVS) Enzymatic Assay for human Phosphodiesterase 4A1 (PDE4A1) (AID 2283191)
Procedure, shortened: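 Cell-free recombinant human PDE4A1 with fluorescent substrate; product separated by electrophoretic mobility shift, 1 h. Screened at 25 uM, then up to 50 uM in concentration-response; loss of signal fitted against DMSO.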

[16] = molecular target: human Protein Tyrosine Phosphatase Receptor Type B (PTPRB), PTPRB (gene 5787) (UniProt P23467); assay: NVS_ENZ_hPTPRB: NovaScreen (NVS) Enzymatic Assay for human Protein Tyrosine Phosphatase Receptor Type B (PTPRB) (AID 2283211)
Procedure, shortened: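 Recombinant human PTPRB with a fluorescent substrate, product separated by electrophoretic mobility shift; read 1 h after dosing. Primary screen in duplicate at 25 uM; actives then retested in concentration series; loss of signal versus DMSO.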

[17] = molecular target: human Tropomyosin Receptor Kinase A (TRKA), NTRK1 (gene 4914) (UniProt P04629); assay: NVS_ENZ_hTrkA: NovaScreen (NVS) Enzymatic Assay for human Tropomyosin Receptor Kinase A (TRKA) (AID 2283224)
Procedure, shortened: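 Recombinant human TrkA activity read after 1 h by fluorescence with electrophoretic mobility shift separating substrate and product. Primary screen in duplicate at 25 uM; actives were rerun in concentration-response up to 50 uM. Loss of signal versus DMSO.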

[18] = molecular target: human Vascular Endothelial Growth Factor Receptor 3 (VEGFR3), FLT4 (gene 2324) (UniProt P35916); assay: NVS_ENZ_hVEGFR3: NovaScreen (NVS) Enzymatic Assay for human Vascular Endothelial Growth Factor Receptor 3 (VEGFR3) (AID 2283229)
Procedure, shortened: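 Cell-free recombinant VEGFR3 kinase reaction with fluorescent substrate, read 1 h after dosing by electrophoretic mobility shift separation of substrate and product. Single-concentration duplicate screen at 25 uM, then concentration-response up to 50 uM; loss of activity versus DMSO.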

[19] = molecular target: human Adenosine Transporter (Adot), SLC29A1 (gene 2030) (UniProt Q99808); assay: NVS_TR_hAdoT: NovaScreen (NVS) Transporter Assay for human Adenosine Transporter (Adot) (AID 2283368)
Procedure, shortened: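 U937-derived membranes, cell-free radioligand binding, filter scintillation 1 h after dosing. 25 uM duplicate screen; hits (e.g. 30% inhibition) run in concentration-response up to 50 uM; loss of signal versus DMSO.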

CC1=NNC(=O)N(/N=C/c2cccnc2)C1
AC50 [1]: inconclusive: 0.0013 µM
AC50 [2]: inconclusive: 0.0143 µM

CCCSP(=S)(OCC)Oc1ccc(Cl)cc1Cl (stereo not given)
AC50 [3]: inconclusive: 21.2 µM

Cc1cc(N=Nc2ccccc2C)ccc1N
AC50 [4]: inconclusive: 12.2 µM
outcome [5]: inactive

O=C(NC(=O)c1c(F)cccc1F)Nc1ccc(OC(F)(F)C(F)OC(F)(F)F)c(Cl)c1 (stereo not given)
outcome [6]: inactive

N#CSCSC#N
AC50 [7]: inconclusive: 25 µM

COC(=O)Nc1nc2ccccc2[nH]1
AC50 [8]: inconclusive: 9.88 µM
AC50 (THRB (gene 7068)): inconclusive: 38.3 µM
AC50 [9]: inconclusive: 50 µM

Cc1cc(O)ccc1Cl
AC50 [10]: active: 25 µM

Cc1ccccc1CO[C@@H]1C[C@@]2(C(C)C)CC[C@]1(C)O2
AC50 [11]: inconclusive: 25 µM

C[Si](Cn1cncn1)(c1ccc(F)cc1)c1ccc(F)cc1
outcome [12]: inactive

CCCCOC(=O)c1ccccc1C(=O)OCc1ccccc1
AC50 [13]: inconclusive: 0.829 µM
outcome [14]: inactive
outcome [3]: inactive

CCN(CC)N=O
AC50 [15]: inconclusive: 25 µM
AC50 [16]: inconclusive: 40.6 µM
AC50 [17]: inconclusive: 6.72 µM
AC50 [18]: inconclusive: 25 µM
AC50 [19]: inconclusive: 25 µM

CC(C)=CC1C(C(=O)OCN2C(=O)C3=C(CCCC3)C2=O)C1(C)C (stereo not given)
outcome [9]: inactive

CCCCN(CC)c1c([N+](=O)[O-])cc(C(F)(F)F)cc1[N+](=O)[O-]
AC50 [13]: inconclusive: 25 µM

O=P(Oc1ccccc1)(Oc1ccccc1)Oc1ccccc1
outcome [19]: inactive

O=S(=O)(O)C(F)(F)C(F)(F)C(F)(F)C(F)(F)C(F)(F)C(F)(F)C(F)(F)C(F)(F)F
AC50 [4]: active: 24.7 µM
AC50 [7]: inconclusive: 38.8 µM and active: 11.7 µM
AC50 [16]: active: 18.7 µM and active: 37.6 µM
AC50 [8]: inconclusive: 25 µM
AC50 [1]: inconclusive: 0.107 µM
AC50 [2]: inconclusive: 0.00129 µM

C=C(C)[C@H]1Cc2c(ccc3c2O[C@@H]2COc4cc(OC)c(OC)cc4[C@@H]2C3=O)O1
AC50 [6]: inconclusive: 10 µM
AC50 (THRB (gene 7068)): active: 1.52 µM

C=CCC1=C(C)[C@@H](OC(=O)[C@@H]2[C@@H](C=C(C)C)C2(C)C)CC1=O
AC50 [11]: inconclusive: 25 µM

Nc1ccc([N+](=O)[O-])cc1
AC50 [18]: inconclusive: 25 µM

CCCC1COC(Cn2cncn2)(c2ccc(Cl)cc2Cl)O1 (stereo not given)
outcome [12]: inactive

CSC(=O)c1c(C(F)F)nc(C(F)(F)F)c(C(=O)SC)c1CC(C)C
AC50 [17]: inconclusive: 25 µM

CCCCNC(=O)n1c(NC(=O)OC)nc2ccccc21
AC50 [15]: inconclusive: 0.203 µM

C#CC(C)(C)NC(=O)c1cc(Cl)cc(Cl)c1
AC50 [14]: inconclusive: 2.11 µM

O=C(Nc1ccccc1)Nc1ccnc(Cl)c1
AC50 [10]: inconclusive: 0.226 µM

CC(C)(C)OOC(C)(C)CCC(C)(C)OOC(C)(C)C
outcome [5]: inactive

Source: PubChem BioAssay (EPA / NIEHS)
